Measurements reported in paper PMC6797804, “Histone H3K23-specific acetylation by MORF is coupled to H3K14 acylation” (Nature Communications, 2019).

Sequences of proteins named here, by UniProt entry; tags and fusion partners are left off.
UniProt Q8WYB5: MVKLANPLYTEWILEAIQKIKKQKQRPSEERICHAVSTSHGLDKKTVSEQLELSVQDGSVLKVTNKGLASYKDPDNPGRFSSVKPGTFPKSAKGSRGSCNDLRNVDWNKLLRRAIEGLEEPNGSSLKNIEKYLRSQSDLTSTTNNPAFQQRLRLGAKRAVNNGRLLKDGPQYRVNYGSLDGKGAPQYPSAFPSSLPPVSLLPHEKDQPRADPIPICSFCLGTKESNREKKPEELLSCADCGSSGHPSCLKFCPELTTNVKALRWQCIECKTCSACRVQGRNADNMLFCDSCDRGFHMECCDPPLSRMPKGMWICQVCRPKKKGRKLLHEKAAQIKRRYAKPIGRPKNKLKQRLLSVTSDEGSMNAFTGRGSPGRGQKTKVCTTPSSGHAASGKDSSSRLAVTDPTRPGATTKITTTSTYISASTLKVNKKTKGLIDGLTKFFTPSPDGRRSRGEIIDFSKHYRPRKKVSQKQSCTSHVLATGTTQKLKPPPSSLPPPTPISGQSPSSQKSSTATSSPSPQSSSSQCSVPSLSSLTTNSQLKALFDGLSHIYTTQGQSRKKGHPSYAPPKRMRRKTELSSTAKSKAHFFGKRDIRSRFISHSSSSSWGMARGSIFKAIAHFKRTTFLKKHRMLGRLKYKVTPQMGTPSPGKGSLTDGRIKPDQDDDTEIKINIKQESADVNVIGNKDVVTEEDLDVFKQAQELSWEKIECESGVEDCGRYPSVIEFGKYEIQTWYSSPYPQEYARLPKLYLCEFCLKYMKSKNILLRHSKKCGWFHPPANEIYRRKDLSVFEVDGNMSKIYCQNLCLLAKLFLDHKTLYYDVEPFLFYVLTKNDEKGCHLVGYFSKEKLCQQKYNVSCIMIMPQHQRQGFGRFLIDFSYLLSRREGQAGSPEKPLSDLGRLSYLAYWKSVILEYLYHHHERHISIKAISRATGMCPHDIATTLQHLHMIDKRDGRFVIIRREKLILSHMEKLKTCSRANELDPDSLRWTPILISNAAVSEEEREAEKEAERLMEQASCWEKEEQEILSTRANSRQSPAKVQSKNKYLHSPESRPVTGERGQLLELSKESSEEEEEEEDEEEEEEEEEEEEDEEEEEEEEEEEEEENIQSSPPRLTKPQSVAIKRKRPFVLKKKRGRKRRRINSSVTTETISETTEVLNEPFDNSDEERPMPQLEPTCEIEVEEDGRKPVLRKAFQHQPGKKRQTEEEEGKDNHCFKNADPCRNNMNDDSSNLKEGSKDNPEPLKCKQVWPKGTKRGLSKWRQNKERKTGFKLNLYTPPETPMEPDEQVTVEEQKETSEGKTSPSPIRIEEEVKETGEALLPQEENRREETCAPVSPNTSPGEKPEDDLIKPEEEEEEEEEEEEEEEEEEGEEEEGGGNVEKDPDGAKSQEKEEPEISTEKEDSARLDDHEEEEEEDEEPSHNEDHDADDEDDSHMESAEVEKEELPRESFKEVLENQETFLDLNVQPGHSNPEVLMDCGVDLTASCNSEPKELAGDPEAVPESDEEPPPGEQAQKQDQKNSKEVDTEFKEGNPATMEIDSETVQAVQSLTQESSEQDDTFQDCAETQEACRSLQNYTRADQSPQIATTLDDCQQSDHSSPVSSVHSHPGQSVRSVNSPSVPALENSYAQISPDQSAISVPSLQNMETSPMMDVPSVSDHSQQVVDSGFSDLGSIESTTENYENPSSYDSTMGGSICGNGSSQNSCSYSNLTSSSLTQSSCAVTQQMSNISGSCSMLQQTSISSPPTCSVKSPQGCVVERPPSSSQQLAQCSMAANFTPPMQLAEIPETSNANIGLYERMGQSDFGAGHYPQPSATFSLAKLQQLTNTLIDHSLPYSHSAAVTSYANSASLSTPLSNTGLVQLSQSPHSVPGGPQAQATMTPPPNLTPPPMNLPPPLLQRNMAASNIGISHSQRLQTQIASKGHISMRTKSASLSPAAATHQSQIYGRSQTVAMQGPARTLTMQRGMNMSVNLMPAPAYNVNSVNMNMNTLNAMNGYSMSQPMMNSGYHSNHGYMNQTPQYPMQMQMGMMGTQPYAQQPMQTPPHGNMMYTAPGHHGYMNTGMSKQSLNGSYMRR
UniProt Q92794: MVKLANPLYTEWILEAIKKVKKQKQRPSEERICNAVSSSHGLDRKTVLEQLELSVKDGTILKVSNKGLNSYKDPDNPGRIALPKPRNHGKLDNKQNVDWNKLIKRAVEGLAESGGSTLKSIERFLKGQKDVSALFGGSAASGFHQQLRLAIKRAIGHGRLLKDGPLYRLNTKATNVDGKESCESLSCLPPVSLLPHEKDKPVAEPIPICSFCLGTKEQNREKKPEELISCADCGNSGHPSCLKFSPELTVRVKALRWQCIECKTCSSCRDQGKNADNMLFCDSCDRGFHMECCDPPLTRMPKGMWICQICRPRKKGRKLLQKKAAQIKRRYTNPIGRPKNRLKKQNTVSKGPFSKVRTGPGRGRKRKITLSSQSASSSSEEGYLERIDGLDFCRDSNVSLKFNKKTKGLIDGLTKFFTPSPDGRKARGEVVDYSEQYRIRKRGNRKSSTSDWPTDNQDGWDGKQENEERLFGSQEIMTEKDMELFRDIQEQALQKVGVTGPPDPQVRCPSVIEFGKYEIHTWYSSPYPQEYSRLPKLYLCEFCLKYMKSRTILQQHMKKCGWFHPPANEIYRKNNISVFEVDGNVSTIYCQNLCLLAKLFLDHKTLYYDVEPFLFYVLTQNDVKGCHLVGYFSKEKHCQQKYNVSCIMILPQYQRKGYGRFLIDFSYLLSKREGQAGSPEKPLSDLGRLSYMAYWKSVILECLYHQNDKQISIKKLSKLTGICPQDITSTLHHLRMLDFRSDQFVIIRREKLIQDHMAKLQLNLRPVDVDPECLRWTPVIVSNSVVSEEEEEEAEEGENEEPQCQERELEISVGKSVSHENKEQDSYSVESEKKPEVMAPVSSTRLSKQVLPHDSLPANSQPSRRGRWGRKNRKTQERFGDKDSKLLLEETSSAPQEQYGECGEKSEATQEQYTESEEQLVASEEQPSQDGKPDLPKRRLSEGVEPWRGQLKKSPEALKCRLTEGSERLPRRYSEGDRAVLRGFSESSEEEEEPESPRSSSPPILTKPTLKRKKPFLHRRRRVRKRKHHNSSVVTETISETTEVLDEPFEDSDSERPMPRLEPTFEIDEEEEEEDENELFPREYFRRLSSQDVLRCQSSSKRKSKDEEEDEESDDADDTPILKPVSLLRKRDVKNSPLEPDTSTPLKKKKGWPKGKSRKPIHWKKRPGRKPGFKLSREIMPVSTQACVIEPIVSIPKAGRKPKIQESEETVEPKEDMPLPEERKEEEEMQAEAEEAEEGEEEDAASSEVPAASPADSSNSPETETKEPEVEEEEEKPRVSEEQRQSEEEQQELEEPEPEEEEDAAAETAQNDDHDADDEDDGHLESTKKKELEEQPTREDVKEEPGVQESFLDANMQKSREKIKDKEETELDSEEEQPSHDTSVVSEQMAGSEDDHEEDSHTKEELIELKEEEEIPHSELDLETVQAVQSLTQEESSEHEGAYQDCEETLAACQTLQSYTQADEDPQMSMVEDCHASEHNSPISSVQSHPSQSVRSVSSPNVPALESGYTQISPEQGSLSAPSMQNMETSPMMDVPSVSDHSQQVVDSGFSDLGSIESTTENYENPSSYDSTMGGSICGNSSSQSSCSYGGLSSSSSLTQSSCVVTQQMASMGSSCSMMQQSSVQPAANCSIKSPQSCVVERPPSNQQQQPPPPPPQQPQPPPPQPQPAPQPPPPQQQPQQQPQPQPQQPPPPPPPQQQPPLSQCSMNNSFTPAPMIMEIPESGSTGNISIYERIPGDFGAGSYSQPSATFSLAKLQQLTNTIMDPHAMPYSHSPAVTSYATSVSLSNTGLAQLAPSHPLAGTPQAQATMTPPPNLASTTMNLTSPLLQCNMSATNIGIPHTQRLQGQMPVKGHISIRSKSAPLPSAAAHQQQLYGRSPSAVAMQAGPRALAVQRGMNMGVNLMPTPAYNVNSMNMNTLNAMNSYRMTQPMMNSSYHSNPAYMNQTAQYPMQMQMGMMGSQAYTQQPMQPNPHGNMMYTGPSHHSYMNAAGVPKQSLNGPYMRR
UniProt P55201: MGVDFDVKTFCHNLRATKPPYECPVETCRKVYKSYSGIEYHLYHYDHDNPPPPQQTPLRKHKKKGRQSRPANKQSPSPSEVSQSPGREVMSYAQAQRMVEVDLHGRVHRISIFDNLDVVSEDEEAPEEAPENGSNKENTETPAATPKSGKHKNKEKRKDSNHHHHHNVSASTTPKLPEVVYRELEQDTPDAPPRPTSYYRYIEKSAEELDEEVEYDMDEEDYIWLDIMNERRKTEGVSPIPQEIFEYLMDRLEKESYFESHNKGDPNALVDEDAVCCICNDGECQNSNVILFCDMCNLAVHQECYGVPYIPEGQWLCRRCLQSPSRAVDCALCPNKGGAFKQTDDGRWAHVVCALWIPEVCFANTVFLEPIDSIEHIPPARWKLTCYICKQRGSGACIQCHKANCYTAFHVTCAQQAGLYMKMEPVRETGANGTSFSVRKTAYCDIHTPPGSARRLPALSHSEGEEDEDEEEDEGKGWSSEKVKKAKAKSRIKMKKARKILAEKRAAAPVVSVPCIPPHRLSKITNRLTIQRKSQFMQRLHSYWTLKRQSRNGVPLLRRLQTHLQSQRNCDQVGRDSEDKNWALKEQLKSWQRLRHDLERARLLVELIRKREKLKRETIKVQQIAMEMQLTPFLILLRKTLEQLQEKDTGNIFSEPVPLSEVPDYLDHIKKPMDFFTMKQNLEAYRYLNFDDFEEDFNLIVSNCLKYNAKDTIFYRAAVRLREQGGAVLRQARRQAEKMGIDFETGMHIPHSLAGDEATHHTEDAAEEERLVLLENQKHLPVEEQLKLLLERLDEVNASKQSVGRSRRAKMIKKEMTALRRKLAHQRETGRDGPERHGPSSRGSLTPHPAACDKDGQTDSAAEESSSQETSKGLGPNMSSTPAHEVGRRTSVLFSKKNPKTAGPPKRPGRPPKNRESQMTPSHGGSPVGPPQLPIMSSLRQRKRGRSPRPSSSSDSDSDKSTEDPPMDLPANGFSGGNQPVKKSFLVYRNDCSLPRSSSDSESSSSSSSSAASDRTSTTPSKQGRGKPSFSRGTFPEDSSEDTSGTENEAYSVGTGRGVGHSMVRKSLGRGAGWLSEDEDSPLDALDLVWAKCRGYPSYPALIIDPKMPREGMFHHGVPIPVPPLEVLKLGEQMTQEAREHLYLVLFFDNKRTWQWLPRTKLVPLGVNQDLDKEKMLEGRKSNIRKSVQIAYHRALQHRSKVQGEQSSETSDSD

Key:
[1] = target: 3xFLAG-2xStrep-tagged MORF (full length), expressed from the AAVS1 locus in K562 cells (human) (UniProt Q8WYB5); assay: affinity purification with mass spectrometry; tandem affinity purification (anti-FLAG agarose, 3xFLAG peptide elution, then Strep-Tactin, biotin elution) of 3xFLAG-2xStrep MORF or MOZ from K562 nuclear extracts; silver staining and Orbitrap mass spectrometry
[2] = target: 3xFLAG-2xStrep-tagged MOZ, expressed from the AAVS1 locus in K562 cells (human) (UniProt Q92794); assay: as above

## BRPF1 (endogenous, K562) (from UniProt P55201 1-1214)
[1]
  binding: binds
[2]
  binding: binds

These are yes or no findings as the source states them, for the method shown. Binding seen in cells or lysates may run through a third protein. These calls come from enrichment with a bait or labelling near it, and not all partners need be listed.
